From the supplement of paper PMC10849652
Some of the results follow. Residues, ends and D or L forms follow the SMILES beside them. *: point of attachment. Cbz = O=C(OCc1ccccc1)*

Amino acid sequences for entries named in this document (tags omitted). A change or cut given only in a name is not applied to a line headed by its entry.
UniProt Q9H993: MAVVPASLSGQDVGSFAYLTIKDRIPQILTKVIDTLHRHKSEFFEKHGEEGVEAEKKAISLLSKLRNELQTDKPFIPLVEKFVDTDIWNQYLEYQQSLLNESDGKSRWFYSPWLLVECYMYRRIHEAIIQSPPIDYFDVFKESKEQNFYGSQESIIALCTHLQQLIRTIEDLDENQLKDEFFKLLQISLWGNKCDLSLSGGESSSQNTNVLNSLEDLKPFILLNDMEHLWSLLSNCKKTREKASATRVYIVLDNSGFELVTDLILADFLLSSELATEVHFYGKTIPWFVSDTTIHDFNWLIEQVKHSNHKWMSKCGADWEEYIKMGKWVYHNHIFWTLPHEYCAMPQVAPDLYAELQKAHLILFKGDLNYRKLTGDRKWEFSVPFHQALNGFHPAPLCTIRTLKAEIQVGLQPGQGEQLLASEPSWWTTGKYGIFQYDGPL
UniProt Q9NVJ2: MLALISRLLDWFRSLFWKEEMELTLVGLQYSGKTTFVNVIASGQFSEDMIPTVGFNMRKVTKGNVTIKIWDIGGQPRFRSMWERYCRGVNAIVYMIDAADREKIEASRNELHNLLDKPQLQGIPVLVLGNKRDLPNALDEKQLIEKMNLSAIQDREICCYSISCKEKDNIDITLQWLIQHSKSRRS
UniProt P18859: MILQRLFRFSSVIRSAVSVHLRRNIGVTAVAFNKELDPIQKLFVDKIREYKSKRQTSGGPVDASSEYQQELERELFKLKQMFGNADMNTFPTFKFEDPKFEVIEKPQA
UniProt O75947: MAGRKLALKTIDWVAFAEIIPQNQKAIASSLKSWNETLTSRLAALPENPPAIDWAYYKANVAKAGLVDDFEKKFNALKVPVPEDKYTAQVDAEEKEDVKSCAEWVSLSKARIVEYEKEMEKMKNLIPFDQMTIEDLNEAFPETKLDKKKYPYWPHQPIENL
UniProt Q9Y294, whole entry, looked up: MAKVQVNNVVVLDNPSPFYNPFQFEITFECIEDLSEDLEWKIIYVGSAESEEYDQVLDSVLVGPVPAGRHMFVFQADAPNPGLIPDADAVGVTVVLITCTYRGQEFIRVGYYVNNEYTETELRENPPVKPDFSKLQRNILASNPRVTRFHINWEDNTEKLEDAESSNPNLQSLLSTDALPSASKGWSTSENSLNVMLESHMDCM
UniProt Q8N9N2: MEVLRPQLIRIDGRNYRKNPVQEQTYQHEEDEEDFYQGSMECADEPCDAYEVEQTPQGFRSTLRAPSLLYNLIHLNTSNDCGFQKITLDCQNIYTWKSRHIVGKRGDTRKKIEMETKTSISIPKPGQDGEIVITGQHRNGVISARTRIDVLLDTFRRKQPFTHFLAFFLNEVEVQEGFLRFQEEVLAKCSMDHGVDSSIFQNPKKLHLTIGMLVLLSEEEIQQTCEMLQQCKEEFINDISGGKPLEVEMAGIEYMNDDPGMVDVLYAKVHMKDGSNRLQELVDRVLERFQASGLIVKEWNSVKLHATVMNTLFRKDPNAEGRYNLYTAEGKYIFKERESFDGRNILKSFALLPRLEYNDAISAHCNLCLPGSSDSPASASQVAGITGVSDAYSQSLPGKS
UniProt P15336: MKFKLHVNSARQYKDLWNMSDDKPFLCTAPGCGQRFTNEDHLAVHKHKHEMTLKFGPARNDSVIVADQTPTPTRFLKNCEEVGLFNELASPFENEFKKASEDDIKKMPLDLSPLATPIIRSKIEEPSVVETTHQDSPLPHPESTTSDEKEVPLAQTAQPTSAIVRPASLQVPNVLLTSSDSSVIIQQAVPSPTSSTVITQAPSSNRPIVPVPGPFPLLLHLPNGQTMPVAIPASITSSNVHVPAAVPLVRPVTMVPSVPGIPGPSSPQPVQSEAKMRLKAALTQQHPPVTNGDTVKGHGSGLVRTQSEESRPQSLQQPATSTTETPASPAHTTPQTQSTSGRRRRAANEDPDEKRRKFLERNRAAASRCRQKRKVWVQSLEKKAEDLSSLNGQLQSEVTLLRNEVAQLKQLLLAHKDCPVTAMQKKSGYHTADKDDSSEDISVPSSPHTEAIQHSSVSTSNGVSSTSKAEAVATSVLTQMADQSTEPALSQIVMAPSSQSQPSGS
UniProt Q9HD20: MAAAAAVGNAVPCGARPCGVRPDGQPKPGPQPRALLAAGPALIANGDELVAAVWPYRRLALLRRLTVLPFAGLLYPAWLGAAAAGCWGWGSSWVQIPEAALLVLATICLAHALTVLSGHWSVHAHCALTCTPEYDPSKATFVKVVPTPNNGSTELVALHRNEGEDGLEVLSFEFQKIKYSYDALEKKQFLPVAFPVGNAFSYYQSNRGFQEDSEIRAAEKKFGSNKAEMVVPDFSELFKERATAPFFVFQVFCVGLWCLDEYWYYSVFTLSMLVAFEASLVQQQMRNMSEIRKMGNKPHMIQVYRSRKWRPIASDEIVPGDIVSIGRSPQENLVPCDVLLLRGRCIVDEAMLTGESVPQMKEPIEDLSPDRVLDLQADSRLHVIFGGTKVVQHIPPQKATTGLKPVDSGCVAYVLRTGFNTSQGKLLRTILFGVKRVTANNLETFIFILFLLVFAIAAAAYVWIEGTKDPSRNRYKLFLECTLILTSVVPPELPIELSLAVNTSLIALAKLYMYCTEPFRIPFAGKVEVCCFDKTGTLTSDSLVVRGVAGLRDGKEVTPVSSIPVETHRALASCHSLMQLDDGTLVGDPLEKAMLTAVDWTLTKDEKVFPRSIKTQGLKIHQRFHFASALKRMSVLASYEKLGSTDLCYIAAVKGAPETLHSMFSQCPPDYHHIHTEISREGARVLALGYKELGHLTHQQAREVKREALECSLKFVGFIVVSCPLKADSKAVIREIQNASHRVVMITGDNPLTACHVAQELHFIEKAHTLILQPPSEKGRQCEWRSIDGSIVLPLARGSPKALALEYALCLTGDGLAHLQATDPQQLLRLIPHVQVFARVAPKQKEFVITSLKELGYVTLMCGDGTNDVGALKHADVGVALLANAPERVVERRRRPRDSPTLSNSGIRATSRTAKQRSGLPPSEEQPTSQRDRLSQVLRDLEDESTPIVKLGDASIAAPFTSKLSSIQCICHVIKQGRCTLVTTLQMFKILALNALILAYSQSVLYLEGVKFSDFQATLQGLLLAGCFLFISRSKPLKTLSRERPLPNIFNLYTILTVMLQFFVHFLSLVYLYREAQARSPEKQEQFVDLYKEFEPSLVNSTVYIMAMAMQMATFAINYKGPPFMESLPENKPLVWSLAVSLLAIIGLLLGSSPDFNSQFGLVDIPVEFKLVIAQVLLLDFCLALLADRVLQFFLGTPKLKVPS
UniProt P98194: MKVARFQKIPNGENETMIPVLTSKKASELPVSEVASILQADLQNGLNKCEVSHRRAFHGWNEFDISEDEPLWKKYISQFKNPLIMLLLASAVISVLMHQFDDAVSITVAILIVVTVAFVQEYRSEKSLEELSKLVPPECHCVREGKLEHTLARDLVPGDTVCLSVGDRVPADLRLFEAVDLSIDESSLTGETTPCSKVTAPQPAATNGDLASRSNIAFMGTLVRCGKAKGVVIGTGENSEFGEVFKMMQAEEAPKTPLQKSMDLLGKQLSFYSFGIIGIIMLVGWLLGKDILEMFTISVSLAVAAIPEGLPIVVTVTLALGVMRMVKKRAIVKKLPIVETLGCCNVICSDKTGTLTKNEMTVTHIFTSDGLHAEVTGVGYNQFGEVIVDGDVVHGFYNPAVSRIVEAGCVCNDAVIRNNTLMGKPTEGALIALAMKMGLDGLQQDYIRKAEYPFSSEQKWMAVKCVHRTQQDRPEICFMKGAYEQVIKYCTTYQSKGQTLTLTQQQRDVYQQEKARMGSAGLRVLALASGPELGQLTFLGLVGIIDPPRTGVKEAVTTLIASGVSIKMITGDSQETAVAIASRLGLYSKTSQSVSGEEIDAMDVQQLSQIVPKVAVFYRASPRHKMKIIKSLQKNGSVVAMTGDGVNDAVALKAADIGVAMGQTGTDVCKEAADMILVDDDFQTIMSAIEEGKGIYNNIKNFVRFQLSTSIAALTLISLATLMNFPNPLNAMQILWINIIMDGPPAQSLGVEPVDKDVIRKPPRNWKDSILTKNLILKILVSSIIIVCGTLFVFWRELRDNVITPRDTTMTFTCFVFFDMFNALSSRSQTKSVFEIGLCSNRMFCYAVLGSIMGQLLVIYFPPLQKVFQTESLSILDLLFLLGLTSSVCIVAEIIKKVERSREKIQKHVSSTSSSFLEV
UniProt Q9NVP2, whole entry, looked up: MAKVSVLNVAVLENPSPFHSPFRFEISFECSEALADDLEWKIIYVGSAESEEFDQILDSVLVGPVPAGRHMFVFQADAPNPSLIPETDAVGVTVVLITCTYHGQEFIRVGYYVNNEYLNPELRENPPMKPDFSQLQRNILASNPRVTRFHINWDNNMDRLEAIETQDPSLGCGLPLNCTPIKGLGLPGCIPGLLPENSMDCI
UniProt P21281, whole entry, looked up: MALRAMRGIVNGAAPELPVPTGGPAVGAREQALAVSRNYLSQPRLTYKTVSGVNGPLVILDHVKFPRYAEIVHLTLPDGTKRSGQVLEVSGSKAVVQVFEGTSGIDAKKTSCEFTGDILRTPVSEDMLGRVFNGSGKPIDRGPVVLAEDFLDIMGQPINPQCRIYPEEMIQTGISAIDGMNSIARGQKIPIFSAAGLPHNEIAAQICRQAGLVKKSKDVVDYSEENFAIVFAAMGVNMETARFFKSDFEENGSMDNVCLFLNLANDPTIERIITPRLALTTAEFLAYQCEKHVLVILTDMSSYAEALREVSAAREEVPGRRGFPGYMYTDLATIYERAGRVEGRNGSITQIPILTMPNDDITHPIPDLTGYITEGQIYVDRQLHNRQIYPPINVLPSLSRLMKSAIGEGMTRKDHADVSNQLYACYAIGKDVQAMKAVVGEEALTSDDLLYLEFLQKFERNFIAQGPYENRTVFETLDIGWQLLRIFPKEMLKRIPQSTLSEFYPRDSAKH
UniProt Q9Y5K8, whole entry, looked up: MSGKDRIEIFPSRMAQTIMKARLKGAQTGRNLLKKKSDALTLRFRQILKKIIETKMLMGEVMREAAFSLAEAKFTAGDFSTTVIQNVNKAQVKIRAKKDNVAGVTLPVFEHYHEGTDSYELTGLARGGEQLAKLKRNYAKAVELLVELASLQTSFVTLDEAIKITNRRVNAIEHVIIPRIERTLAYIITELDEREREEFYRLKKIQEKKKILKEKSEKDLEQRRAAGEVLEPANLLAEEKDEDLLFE
UniProt P56381: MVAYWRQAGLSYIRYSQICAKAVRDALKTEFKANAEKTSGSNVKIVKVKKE
UniProt P23634: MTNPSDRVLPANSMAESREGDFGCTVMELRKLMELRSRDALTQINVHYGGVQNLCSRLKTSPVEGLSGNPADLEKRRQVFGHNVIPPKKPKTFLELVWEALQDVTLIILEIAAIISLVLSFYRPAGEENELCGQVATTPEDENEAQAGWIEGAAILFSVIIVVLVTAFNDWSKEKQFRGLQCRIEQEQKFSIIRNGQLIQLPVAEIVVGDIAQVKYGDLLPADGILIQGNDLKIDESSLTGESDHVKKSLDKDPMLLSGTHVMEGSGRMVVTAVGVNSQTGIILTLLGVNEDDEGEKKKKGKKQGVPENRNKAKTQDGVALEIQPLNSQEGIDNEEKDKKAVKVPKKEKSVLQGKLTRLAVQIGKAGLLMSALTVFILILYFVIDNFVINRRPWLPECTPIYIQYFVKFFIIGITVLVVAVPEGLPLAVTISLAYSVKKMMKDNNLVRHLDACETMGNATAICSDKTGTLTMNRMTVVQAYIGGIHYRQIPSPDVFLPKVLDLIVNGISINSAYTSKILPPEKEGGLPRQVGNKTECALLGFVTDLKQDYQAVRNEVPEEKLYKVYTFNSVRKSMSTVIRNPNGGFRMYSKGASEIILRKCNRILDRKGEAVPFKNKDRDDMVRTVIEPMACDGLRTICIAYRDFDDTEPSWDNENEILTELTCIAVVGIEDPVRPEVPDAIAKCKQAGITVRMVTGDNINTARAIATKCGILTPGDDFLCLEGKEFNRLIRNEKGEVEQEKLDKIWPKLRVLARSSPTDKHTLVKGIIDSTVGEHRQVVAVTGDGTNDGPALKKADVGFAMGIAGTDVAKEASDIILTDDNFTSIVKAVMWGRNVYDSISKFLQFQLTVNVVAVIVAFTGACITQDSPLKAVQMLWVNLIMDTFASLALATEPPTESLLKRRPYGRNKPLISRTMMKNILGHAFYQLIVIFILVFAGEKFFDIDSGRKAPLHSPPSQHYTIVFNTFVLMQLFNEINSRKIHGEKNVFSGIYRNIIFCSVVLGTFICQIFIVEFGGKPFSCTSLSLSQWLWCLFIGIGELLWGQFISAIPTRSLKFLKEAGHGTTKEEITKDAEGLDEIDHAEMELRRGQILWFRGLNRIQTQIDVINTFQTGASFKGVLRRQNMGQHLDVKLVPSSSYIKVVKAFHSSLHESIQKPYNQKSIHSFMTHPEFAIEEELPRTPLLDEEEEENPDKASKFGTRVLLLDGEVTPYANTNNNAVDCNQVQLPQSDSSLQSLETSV
UniProt P56211: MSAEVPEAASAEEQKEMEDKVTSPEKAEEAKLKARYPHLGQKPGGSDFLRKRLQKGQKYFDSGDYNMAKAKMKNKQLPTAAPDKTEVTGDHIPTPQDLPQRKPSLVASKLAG

Assays:
Assay in all cases: log2 fold change, soluble protein after heating vs DMSO (PISA); higher = thermal stabilisation; K562 cells, 10 uM, 30 min; active = over 0.2 and 3.5 SD of the protein, either way, in both replicates (recomputed)
IRAK-1-4 Inhibitor I = compound: C1COCCN1CCN2C3=CC=CC=C3N=C2NC(=O)C4=CC(=CC=C4)[N+](=O)[O-] [IRAK-1-4 Inhibitor I]
Summary of the method: (§1)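 K562 cells at 2×10^6 cells/mL were given 10 μM compound for 30 min. Aliquots then went through 3 min of heating across 48°C-58°C, were pooled, and were extracted in PBS with 0.5% NP-40 at 4°C, and the supernatant after 21,000xg for 90 min was quantified by TMTpro 16plex LC-MS/MS with channel sums equalised. Thermal stability relative to control samples, from duplicates, is given as log2 fold change.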

ibrutinib = compound: C=CC(=O)N1CCC[C@@H](n2nc(-c3ccc(Oc4ccccc4)cc3)c3c(N)ncnc32)C1 [ibrutinib]
Summary of the method: as §1

[1] = compound: CC(=O)c1cnc2ccc(-c3cc(Cl)c(O)c(Cl)c3)nc2c1N[C@H]1CC[C@H](CN(C)C)CC1
Summary of the method: as §1

ralimetinib = compound: CC(C)(C)Cn1c(N)nc2ccc(-c3[nH]c(C(C)(C)C)nc3-c3ccc(F)cc3)nc21 [ralimetinib]
Summary of the method: as §1

[2] = compound: CC(C)(O)CC(=O)NCCn1ccc2ncnc(Nc3ccc(Oc4cccc(C(F)(F)F)c4)c(Cl)c3)c21
Summary of the method: as §1

[3] = compound: CC(C)C1=C2N=C(C=C(N2N=C1)NCC3=CC=CC=C3)NCCCCCCN
Summary of the method: as §1

[4] = compound: CC(C)C[C@@H](C=O)NC(=O)[C@H](CC(C)C)NC(=O)[C@H](CC(C)C)NC(=O)OCc1ccccc1
Summary of the method: as §1

pinometostat = compound: CC(C)N(C[C@H]1O[C@@H](n2cnc3c(N)ncnc32)[C@H](O)[C@@H]1O)[C@H]1C[C@@H](CCc2nc3cc(C(C)(C)C)ccc3[nH]2)C1 [pinometostat]
Summary of the method: as §1

[5] = compound: CC1=C(C(CC(=O)N1)C2=CC=C(C=C2)C(F)(F)F)C(=O)NC3=C(C=C4C(=C3)C=NN4)F
Summary of the method: as §1

[6] = compound: CC1=C(C2=C(C=C1)C(=O)C3=CC=CC=C3N2CCCN)C
Summary of the method: as §1

[7] = compound: CC1=C(C=C(C=C1)NC(=O)C2=CC(=CC=C2)C(C)(C)C#N)NC3=CC4=C(C=C3)N=CN(C4=O)C
Summary of the method: as §1

[8] = compound: CC1=C(C=C(C=C1)NC(=O)C2=CC(=CC=C2)N(C)C)NC(=O)C3=CC=C(C=C3)O
Summary of the method: as §1

[9] = compound: CC1=CC=C(C=C1)SC2=C3C=C(SC3=CN=C2)C(=O)N
Summary of the method: as §1

[10] = compound: CC1=NC(=CC=C1)C2=C(N=C(N2)C(C)(C)C)C3=CC4=NC=CN=C4C=C3
Summary of the method: as §1

Nexturastat A = compound: CCCCN(Cc1ccc(C(=O)NO)cc1)C(=O)Nc1ccccc1 [Nexturastat A]
Summary of the method: as §1

vemurafenib = compound: CCCS(=O)(=O)Nc1ccc(F)c(C(=O)c2c[nH]c3ncc(-c4ccc(Cl)cc4)cc23)c1F [vemurafenib]
Summary of the method: as §1

[11] = compound: CCCS(=O)(=O)Nc1ccc(F)c(C(=O)c2c[nH]c3ncc(Cl)cc23)c1F
Summary of the method: as §1

[12] = compound: CCCc1cc(C)[nH]c(=O)c1CNC(=O)c1cc(-c2ccnc(N3CCN(C)CC3)c2)cc2c1cnn2C(C)C
Summary of the method: as §1

givinostat = compound: CCN(CC)Cc1ccc2cc(COC(=O)Nc3ccc(C(=O)NO)cc3)ccc2c1 [givinostat]
Summary of the method: as §1

barasertib = compound: CCN(CCCOc1ccc2c(Nc3cc(CC(=O)Nc4cccc(F)c4)[nH]n3)ncnc2c1)CCOP(=O)(O)O [barasertib]
Summary of the method: as §1

Measured: log2 fold change

ARMT1 (UniProt Q9H993)
inactive: IRAK-1-4 Inhibitor I -0.303 | ibrutinib 0 | [1] -0.03 | ralimetinib 0.184 | [2] -0.163 | [3] -0.438 | [4] 0.175 | pinometostat 0.272 | [5] 0.039 | [6] -0.245 | [7] -0.127 | [8] -0.101 | [9] 0.055 | [10] -0.042 | Nexturastat A 0.163 | vemurafenib 0.084 | [11] 0.085 | [12] 0.049 | givinostat 0.173 | barasertib 0.119

ARL8B (UniProt Q9NVJ2)
inactive: IRAK-1-4 Inhibitor I 0.034 | ibrutinib 0.02 | [1] -0.013 | ralimetinib -0.032 | [2] 0.006 | [3] -0.093 | [4] 0 | pinometostat -0.038 | [5] -0.024 | [6] -0.025 | [7] -0.001 | [8] 0.069 | [9] 0.027 | [10] 0.018 | Nexturastat A -0.014 | vemurafenib 0.006 | [11] 0.02 | [12] -0.04 | givinostat -0.014 | barasertib -0.011

ATP5PF isoform 2 (UniProt P18859)
inactive: IRAK-1-4 Inhibitor I 0.028 | ibrutinib 0.013 | [1] -0.019 | ralimetinib -0.132 | [2] -0.036 | [3] 0.127 | [4] -0.057 | pinometostat -0.097 | [5] 0.015 | [6] -0.165 | [7] 0.003 | [8] -0.149 | [9] 0.041 | [10] 0.107 | Nexturastat A 0.045 | vemurafenib 0.108 | [11] -0.054 | [12] 0.134 | givinostat -0.029 | barasertib 0

ATP5PD (UniProt O75947)
inactive: IRAK-1-4 Inhibitor I 0.046 | ibrutinib 0.015 | [1] 0.065 | ralimetinib 0.007 | [2] 0 | [3] 0.034 | [4] -0.068 | pinometostat -0.038 | [5] 0.018 | [6] 0.006 | [7] -0.024 | [8] 0.022 | [9] -0.007 | [10] 0.002 | Nexturastat A -0.046 | vemurafenib -0.027 | [11] -0.035 | [12] -0.027 | givinostat -0.034 | barasertib -0.016

ASF1A (UniProt Q9Y294)
inactive: IRAK-1-4 Inhibitor I 0.052 | ibrutinib -0.037 | [1] -0.02 | ralimetinib -0.051 | [2] -0.051 | [3] -0.028 | [4] 0.024 | pinometostat -0.052 | [5] -0.008 | [6] 0.041 | [7] 0.034 | [8] 0.069 | [9] 0.023 | [10] 0.016 | Nexturastat A 0.156 | vemurafenib 0.029 | [11] -0.016 | [12] -0.002 | givinostat 0.012 | barasertib 0.029

ASCC1 isoform 2 (UniProt Q8N9N2)
inactive: IRAK-1-4 Inhibitor I -0.015 | ibrutinib -0.037 | [1] -0.045 | ralimetinib 0.058 | [2] -0.064 | [3] -0.125 | [4] 0.068 | pinometostat 0.065 | [5] -0.007 | [6] -0.028 | [7] -0.055 | [8] 0.017 | [9] -0.007 | [10] 0.001 | Nexturastat A 0.038 | vemurafenib -0.07 | [11] 0.029 | [12] -0.024 | givinostat 0.048 | barasertib 0.013

ATF2 (UniProt P15336)
inactive: IRAK-1-4 Inhibitor I 0.107 | ibrutinib 0.036 | [1] 0.036 | ralimetinib 0.075 | [2] -0.119 | [3] 0.093 | [4] -0.021 | pinometostat 0.145 | [5] 0.09 | [6] 0.288 | [7] 0.006 | [8] 0.042 | [9] -0.002 | [10] 0.065 | Nexturastat A -0.236 | vemurafenib -0.013 | [11] 0.002 | [12] -0.317 | givinostat -0.09 | barasertib -0.011

ATP13A1 (UniProt Q9HD20)
inactive: IRAK-1-4 Inhibitor I 0.014 | ibrutinib -0.02 | [1] -0.007 | ralimetinib -0.022 | [2] -0.141 | [3] -0.018 | [4] -0.019 | pinometostat 0.028 | [5] -0.036 | [6] 0.081 | [7] 0.028 | [8] -0.025 | [9] -0.009 | [10] 0.004 | Nexturastat A -0.078 | vemurafenib 0.055 | [11] 0.025 | [12] -0.015 | givinostat 0.053 | barasertib 0.007

ATP2C1 isoform 7 (UniProt P98194)
inactive: IRAK-1-4 Inhibitor I 0.068 | ibrutinib -0.009 | [1] 0.002 | ralimetinib -0.051 | [2] -0.094 | [3] -0.093 | [4] -0.026 | pinometostat -0.013 | [5] 0.003 | [6] -0.052 | [7] -0.002 | [8] 0.009 | [9] -0.007 | [10] 0.025 | Nexturastat A -0.063 | vemurafenib 0.015 | [11] 0 | [12] -0.056 | givinostat -0.028 | barasertib -0.046

ASF1B (UniProt Q9NVP2)
inactive: IRAK-1-4 Inhibitor I 0.017 | ibrutinib -0.021 | [1] -0.114 | ralimetinib 0.329 | [2] 0.227 | [3] -0.285 | [4] -0.062 | pinometostat 0.108 | [5] 0.128 | [6] 0.165 | [7] -0.029 | [8] -0.058 | [9] 0 | [10] -0.075 | Nexturastat A 0.281 | vemurafenib -0.008 | [11] -0.062 | [12] -0.222 | givinostat 0.284 | barasertib 0.07

ATP6V1B2 (UniProt P21281)
inactive: IRAK-1-4 Inhibitor I 0.03 | ibrutinib 0.007 | [1] -0.002 | ralimetinib -0.004 | [2] -0.025 | [3] -0.161 | [4] 0.035 | pinometostat 0.008 | [5] 0.032 | [6] -0.012 | [7] -0.011 | [8] 0.015 | [9] -0.014 | [10] -0.017 | Nexturastat A 0.016 | vemurafenib -0.032 | [11] -0.001 | [12] -0.013 | givinostat 0.007 | barasertib 0.001

ATP6V1D (UniProt Q9Y5K8)
inactive: IRAK-1-4 Inhibitor I 0.007 | ibrutinib -0.009 | [1] -0.018 | ralimetinib 0.013 | [2] 0.056 | [3] -0.138 | [4] 0.036 | pinometostat -0.038 | [5] 0.007 | [6] 0.005 | [7] -0.007 | [8] 0.019 | [9] -0.035 | [10] 0.015 | Nexturastat A -0.024 | vemurafenib 0.005 | [11] -0.018 | [12] -0.013 | givinostat 0.006 | barasertib 0.014

ATP5F1E (UniProt P56381)
inactive: IRAK-1-4 Inhibitor I 0.019 | ibrutinib -0.029 | [1] 0.023 | ralimetinib -0.099 | [2] 0.013 | [3] 0.035 | [4] -0.037 | pinometostat -0.058 | [5] 0.004 | [6] -0.078 | [7] -0.026 | [8] -0.007 | [9] -0.009 | [10] 0.035 | Nexturastat A -0.047 | vemurafenib -0.041 | [11] -0.016 | [12] -0.019 | givinostat -0.051 | barasertib 0.017

ATG16L1 (UniProt Q676U5)
inactive: IRAK-1-4 Inhibitor I 0.025 | ibrutinib -0.024 | [1] -0.061 | ralimetinib -0.04 | [2] -0.053 | [3] -0.054 | [4] 0.006 | pinometostat -0.036 | [5] -0.007 | [6] 0.046 | [7] -0.019 | [8] 0.029 | [9] 0.008 | [10] 0.032 | Nexturastat A -0.011 | vemurafenib 0.019 | [11] -0.013 | [12] -0.028 | givinostat -0.027 | barasertib -0.011

ATP2B4 (UniProt P23634)
inactive: IRAK-1-4 Inhibitor I 0.051 | ibrutinib 0.081 | [1] -0.018 | ralimetinib -0.05 | [2] 0.036 | [3] 0.158 | [4] 0 | pinometostat -0.003 | [5] -0.006 | [6] 0.032 | [7] -0.056 | [8] -0.021 | [9] -0.03 | [10] -0.031 | Nexturastat A 0.038 | vemurafenib -0.015 | [11] -0.032 | [12] -0.014 | givinostat -0.014 | barasertib -0.011

ARPP19 (UniProt P56211)
inactive: IRAK-1-4 Inhibitor I 0.052 | ibrutinib -0.009 | [1] 0 | ralimetinib 0.048 | [2] -0.051 | [3] 0.048 | [4] -0.071 | pinometostat -0.157 | [6] -0.074 | [7] -0.012 | [8] 0.199 | [9] 0.057 | [10] 0.125 | Nexturastat A -0.04 | vemurafenib 0.041 | [11] 0.043 | [12] -0.106 | givinostat -0.003 | barasertib -0.012

Retrieved one by one from above, 2 records:
ARPP19 (UniProt P56211)
inactive: IRAK-1-4 Inhibitor I 0.052 | ibrutinib -0.009 | [1] 0 | ralimetinib 0.048 | [2] -0.051 | [3] 0.048 | [4] -0.071 | pinometostat -0.157 | [6] -0.074 | [7] -0.012 | [8] 0.199 | [9] 0.057 | [10] 0.125 | Nexturastat A -0.04 | vemurafenib 0.041 | [11] 0.043 | [12] -0.106 | givinostat -0.003 | barasertib -0.012

ATP6V1D (UniProt Q9Y5K8)
inactive: IRAK-1-4 Inhibitor I 0.007 | ibrutinib -0.009 | [1] -0.018 | ralimetinib 0.013 | [2] 0.056 | [3] -0.138 | [4] 0.036 | pinometostat -0.038 | [5] 0.007 | [6] 0.005 | [7] -0.007 | [8] 0.019 | [9] -0.035 | [10] 0.015 | Nexturastat A -0.024 | vemurafenib 0.005 | [11] -0.018 | [12] -0.013 | givinostat 0.006 | barasertib 0.014
